Data reported in paper PMC8729784.
These are yes or no findings as the source states them, for the method shown. In cells and extracts the contact can be indirect. Some results given as binding are weak or reduced against the parent protein; the word gives no strength.

Target: T1, vinculin (mouse (endogenous in eEND cells and MDMVECs)) (UniProt Q64727)
T1 sequence: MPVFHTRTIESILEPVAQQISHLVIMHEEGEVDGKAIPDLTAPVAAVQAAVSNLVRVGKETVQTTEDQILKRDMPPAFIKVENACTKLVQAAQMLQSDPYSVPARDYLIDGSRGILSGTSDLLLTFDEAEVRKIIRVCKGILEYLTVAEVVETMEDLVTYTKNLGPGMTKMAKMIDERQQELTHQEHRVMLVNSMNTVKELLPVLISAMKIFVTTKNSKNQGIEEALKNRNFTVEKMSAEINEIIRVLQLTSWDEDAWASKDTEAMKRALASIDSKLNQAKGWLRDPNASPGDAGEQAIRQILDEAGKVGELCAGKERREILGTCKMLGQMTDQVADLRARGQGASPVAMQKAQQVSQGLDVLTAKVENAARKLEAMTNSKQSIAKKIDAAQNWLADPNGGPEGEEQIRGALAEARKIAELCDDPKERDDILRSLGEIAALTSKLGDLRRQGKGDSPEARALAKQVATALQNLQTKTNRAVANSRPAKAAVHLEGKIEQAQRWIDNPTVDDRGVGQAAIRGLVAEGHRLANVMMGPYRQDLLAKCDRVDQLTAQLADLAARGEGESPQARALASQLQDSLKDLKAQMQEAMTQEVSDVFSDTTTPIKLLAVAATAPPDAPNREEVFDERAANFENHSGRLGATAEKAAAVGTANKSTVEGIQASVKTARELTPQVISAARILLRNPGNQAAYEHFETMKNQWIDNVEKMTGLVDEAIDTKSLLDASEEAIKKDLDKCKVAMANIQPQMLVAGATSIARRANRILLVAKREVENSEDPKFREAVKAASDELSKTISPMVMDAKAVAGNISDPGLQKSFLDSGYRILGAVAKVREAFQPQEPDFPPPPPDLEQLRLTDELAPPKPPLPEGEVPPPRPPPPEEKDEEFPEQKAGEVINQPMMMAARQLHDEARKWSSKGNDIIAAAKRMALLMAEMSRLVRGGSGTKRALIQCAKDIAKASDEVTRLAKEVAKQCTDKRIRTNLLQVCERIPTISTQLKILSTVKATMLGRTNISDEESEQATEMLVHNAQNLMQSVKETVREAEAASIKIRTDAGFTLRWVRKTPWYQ
Experiment: co-IP; anti-vinculin antibodies on Dynabeads, lysates of eEND cells or MDMVECs (1% Nonidet P-40, 25 mM Tris-HCl pH 7.4, 100 mM NaCl, 10 mM MgCl2, 10% glycerol), 1 h at 4°C, five washes; immunoblot for VE-cadherin

binding: binds weakly
B1: VE-cadherin (protein, UniProt P55284 46-784)
chain: DWIWNQMHIDEEKNESLPHYVGKIKSNVNRQNAKYVLQGEFAGKIFGVDANTGNVLAYERLDREKVSEYFLTALIVDKNTNKNLEQPSSFTVKVHDINDNWPVFSHQVFNASVPEMSAIGTSVIRVTAVDADDPTVAGHATVLYQIVKGNEYFSIDNSGLIFTKIKNLDREKQAEYKIVVETQDALGLRGESGTATVMIRLEDINDNFPVFTQSTYTFSVPEDIRVGKPLGFLTVVDPDEPQNRMTKYSIMQGEYRDTFTIETDPKRNEGIIKPTKSLDYEVIQQYTFYIEATDPTIRYEYLSSTSGKNKAMVTINVLDVDEPPVFQRHFYHFKLPENQKKPLIGTVVAKDPDKAQRSIGYSIRKTSDRGQFFRITKQGNIYNEKELDRETYAWYNLTVEANELDSRGNPVGKESIVQVYIEVLDENDNPPEFAQPYEPKVCENAAQGKLVVQISATDKDVVPVNPKFKFALKNEDSNFTLINNHDNTANITVKYGQFNREHAKFHYLPVLISDNGVPSLTGTSTLTVGVCKCNEQGEFTFCEEMAAQAGVSIQALVAIFLCILTITVITLLIILRRRIRKQAHAHSKSALEIHEQLVTYDEEGGGEMDTTSYDVSVLNSVRGGSTKPLRSTMDARPAVYTQVQKPPRLAPGLHGGPREMATMIDVKKEEADNDGGGPPYDTLHIYGYEGAESIAESLSSLSTNSSDSDIDYDFLNDWGPRFKMLAELYGSDPQEELII
